Some of the results follow. Single values are uncertain here, since repeats match poorly.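 The cells were human embryonic kidney cells carrying a Renilla luciferase gene, driven by the HSV-TK promoter, on a plasmid put in briefly by transfection. This is the first-round screen of about ten thousand compounds, looking for ones that raise reporter output.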

For this experiment, the system named is HEK 293FT. In words: log relative Renilla luciferase luminescence (reporter expression vs reference, reference not stated) (log (base not stated)); higher = higher recombinant reporter expression. The note with it: 10 µM; time after transfection 48 h. The protocol:
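HEK 293FT cells transiently transfected with pRL-TK (Renilla luciferase) were treated with compounds at 10 uM and luminescence was read about 42 h later. Values are log relative Renilla luminescence (log base and reference not stated). Single-pass screen; ICCB Known Bioactives library.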
Take `CO/C1=C\C(C)=C\[C@@H](C)[C@@H](O)[C@@H](C)C/C(C)=C/C=C/[C@H](OC)[C@@H]([C@@H](C)[C@@H](O)[C@H](C)[C@@]2(O)C[C@@H](O)[C@H](C)[C@@H](C(C)C)O2)OC1=O` [Bafilomycin A1]: the log is -0.474.

For the compound `CCCCC[C@@H](/C=C/C=C\CCCCCCCC(=O)O)OO`, the log was 0.0921.

For the compound `O=C1C=CC(=O)c2c(O)cccc21` [Juglone], the log worked out at 0.284.

With `C#CCN(C)C(C)Cc1ccccc1` (stereo not given) [Deprenyl], the log stood at 0.291.

For the compound `C[C@@H]1O[C@@H](O[C@H]2C[C@@H](O)[C@]3(CO)[C@H]4[C@H](O)C[C@]5(C)[C@@H](C6=CC(=O)OC6)CC[C@]5(O)[C@@H]4CC[C@]3(O)C2)[C@H](O)[C@H](O)[C@H]1O` [Ouabain], the log was -1.8.

Turning to `CC1=C2C[C@H]3[C@@H](CC=C4C[C@@H](O)CC[C@@]43C)[C@@H]2CC[C@]12O[C@@H]1C[C@H](C)CN[C@H]1[C@H]2C` [Cyclopamine], the log is 0.0491.

As to `COC1=CC(=O)O[C@@H](/C=C/c2ccccc2)C1` (racemic) [Kavain (±)], the log is -0.109.

Regarding `O=c1[nH]c2ccccc2n1C1CCN(CCCC(c2ccc(F)cc2)c2ccc(F)cc2)CC1` [Pimozide], the log is -0.49.

With `COc1cccc2c1cc([N+](=O)[O-])c1c(C(=O)O)cc3c(c12)OCO3` [Aristolochic acid], the log was -0.562.

Regarding `Nc1ccncc1` [4-Aminopyridine], the log was -0.00816.

In the case of `COC[C@H]1OC(=O)c2coc3c2[C@@]1(C)C1=C(C3=O)[C@@H]2CCC(=O)[C@@]2(C)C[C@H]1OC(C)=O` [Wortmannin], the log was -0.176.

For the compound `CCNC(=O)C1OC(n2cnc3c(N)ncnc32)C(O)C1O` (stereo not given) [5'-N-Ethylcarboxamidoadenosine (NECA)], the log is -0.286.

Regarding `CNc1ccc2oc(C[C@H]3O[C@@]4(CC[C@H]3C)O[C@H]([C@H](C)C(=O)c3ccc[nH]3)[C@H](C)C[C@H]4C)nc2c1C(=O)O`, the log is -0.0297.

In the case of `CCCCCCCCCCCCCCCCOCC(COP(=O)([O-])OCC[N+](C)(C)C)OC(C)=O` (stereo not drawn) [Enantio-PAF C16], the log is -0.0865.

On to `CN[C@@H]1C[C@H]2O[C@@](C)([C@@H]1OC)n1c3ccccc3c3c4c(c5c6ccccc6n2c5c31)C(=O)NC4` [Staurosporine], for which the log was -1.56.

As for `CCCCC/C=C\C/C=C\C/C=C\C/C=C\CCCC(=O)N[C@H](C)CO` [(R)-Methanandamide], the log was -0.126.

As to `C[C@@H]1C[C@@H]([C@H](O)CC2CC(=O)NC(=O)C2)C(=O)[C@@H](C)C1` [Cycloheximide], the log was -1.75.

Regarding `CC(C)NCC(O)c1ccc(N)c(C#N)c1` (stereo not given) [Cimaterol], the log was -0.265.

As to `CCCCCc1cc(O)c2c(c1)OC(C)(C)C1CCC(C(=O)O)=CC21` (stereo not given) [Tetrahydrocannabinol-7-oic acid], the log was -0.00642.

For the compound `C/C(O)=C(\C#N)C(=O)Nc1cc(Br)ccc1Br`, the log amounted to 0.329.

On to `C=C1C(=O)O[C@@H]2C[C@@H](C)[C@@H]3C=CC(=O)[C@@]3(C)[C@@H](O)[C@H]12` [Helenalin], for which the log is -0.421.

For `CCCCC/C=C\C/C=C\C/C=C\C/C=C\CCCC(=O)NCCO` [Anandamide (18:2,n-6)], the log came to 0.216.

Consider `C=C1[C@@H](C)[C@H]2[C@H](Cc3ccccc3)NC(=O)[C@]23OC(=O)/C=C/[C@H](O)CCC[C@@H](C)C/C=C/[C@H]3[C@@H]1O` [Cytochalasin B], for which the log was -0.295.

For the compound `N#CC(C#N)=Cc1ccc(O)cc1` [Tyrphostin-8], the log is 0.255.

For the compound `CC1(C)[C@@H](O)C[C@H]2[C@](C)(O)[C@@H]3CC[C@@H]4[C@@H](O)[C@@]3(C[C@@H](O)[C@@]21O)C[C@@]4(C)O` [Grayanotoxin III], the log is -0.00555.

For `N#Cc1nn(-c2c(Cl)cc(C(F)(F)F)cc2Cl)c(N)c1[S+]([O-])C(F)(F)F` (stereo not given) [Fipronil], the log was 0.0729.

As to `C[C@H](N)C(=O)N[C@@H](C)C(=O)N[C@@H](Cc1ccccc1)C(=O)CCl`, the log is 0.163.

For the compound `CN1C(=O)[C@]23CC4=CC=C[C@H](O)[C@H]4N2C(=O)[C@@]1(CO)SS3` [Gliotoxin], the log was -1.32.

With `CCCCC/C=C\C/C=C\C/C=C\C/C=C\CCCC(=O)NCCO` [Anandamide (20:3,n-6)], the log came out at 0.142.

On to `CCCCC/C=C\C/C=C\C/C=C\C/C=C\CCCC(N)=O` [Arachidonamide], for which the log stood at 0.0206.

On to `COc1ccc(C[C@H]2NC[C@H](O)[C@H]2OC(C)=O)cc1` [Anisomycin], for which the log is -0.345.

Regarding `CC(C)[C@]12O[C@H]1[C@@H]1O[C@]13[C@]1(O[C@H]1C[C@H]1C4=C(CC[C@@]13C)C(=O)OC4)[C@@H]2O` [Triptolide], the log is -1.32.

On to `CCN1C[C@]2(COC)[C@H](O)C[C@H](OC)[C@@]34[C@@H]5C[C@@]6(O)[C@H](OC(=O)c7ccccc7)[C@@H]5[C@@](OC(C)=O)([C@@H]([C@H](OC)[C@H]23)[C@@H]14)[C@@H](O)[C@@H]6OC` [Aconitine], for which the log was -0.147.

As to `CCCCC/C=C\CC1OC1CCCCCCCC(=O)O` (stereo not given) [Leukotoxin A (9,10-EODE)], the log was -0.197.

In the case of `C=C(C)[C@H]1O[C@H]2CC[C@@]3(C)[C@@](O)(CC[C@H]4[C@@H]5OC(C)(C)[C@H]6C[C@@H]7C(=C)Cc8c(Cl)cc9[nH]c(c5c9c8[C@@]76O)[C@@]43C)[C@@]23O[C@H]3[C@H]1O` [Penitrem A], the log amounted to 0.337.

In the case of `N#C/C(=C\c1ccc(O)c(O)c1)C(N)=S` [AG213 (Tyrphostin 47)], the log is 0.0955.

For the compound `C[C@H](CCC(=O)O)C[C@H](C)C[C@H](C)C(=O)/C=C(\O)[C@H](C)C[C@H](C)C/C=C/[C@@H](C)[C@@H](O)[C@@H](C)[C@@H](O)C[C@@H]1CC[C@@](C)([C@H]2CC[C@@](C)([C@@H](C)O)O2)O1` [Ionomycin], the log was 0.267.

`O[C@H]1[C@H](O)[C@@H](O)CN2CC[C@H](O)[C@H]12` [Castanospermine]: the log was -0.0751.

Take `C=C1[C@@H](O)[C@@H]2O[C@]3(CC[C@H](/C=C/[C@@H](C)[C@@H]4CC(C)=C[C@@]5(O[C@H](C[C@@](C)(O)C(=O)O)CC[C@H]5O)O4)O3)CC[C@H]2O[C@@H]1[C@@H](O)C[C@H](C)[C@H]1O[C@@]2(CCCCO2)CC[C@H]1C` [Okadaic acid]: the log was -2.1.

On to `O=C1C2CCN(CC2)C1(CO)CO`, for which the log is -0.13.

The values above are taken from the supplement of paper PMC7024190.
